Measurements taken from the supplement of paper PMC10849652.
The list shows a part of the results.

The chains behind the UniProt entries cited, without tags or fusion partners. Where a name states a change or a piece, a line headed by the entry shows the natural chain unless it says otherwise.
UniProt Q9BQI0: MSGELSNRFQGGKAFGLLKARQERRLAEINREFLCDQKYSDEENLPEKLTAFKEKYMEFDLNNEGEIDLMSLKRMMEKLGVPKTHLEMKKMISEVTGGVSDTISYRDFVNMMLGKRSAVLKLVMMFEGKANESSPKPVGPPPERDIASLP
UniProt Q8IZ83: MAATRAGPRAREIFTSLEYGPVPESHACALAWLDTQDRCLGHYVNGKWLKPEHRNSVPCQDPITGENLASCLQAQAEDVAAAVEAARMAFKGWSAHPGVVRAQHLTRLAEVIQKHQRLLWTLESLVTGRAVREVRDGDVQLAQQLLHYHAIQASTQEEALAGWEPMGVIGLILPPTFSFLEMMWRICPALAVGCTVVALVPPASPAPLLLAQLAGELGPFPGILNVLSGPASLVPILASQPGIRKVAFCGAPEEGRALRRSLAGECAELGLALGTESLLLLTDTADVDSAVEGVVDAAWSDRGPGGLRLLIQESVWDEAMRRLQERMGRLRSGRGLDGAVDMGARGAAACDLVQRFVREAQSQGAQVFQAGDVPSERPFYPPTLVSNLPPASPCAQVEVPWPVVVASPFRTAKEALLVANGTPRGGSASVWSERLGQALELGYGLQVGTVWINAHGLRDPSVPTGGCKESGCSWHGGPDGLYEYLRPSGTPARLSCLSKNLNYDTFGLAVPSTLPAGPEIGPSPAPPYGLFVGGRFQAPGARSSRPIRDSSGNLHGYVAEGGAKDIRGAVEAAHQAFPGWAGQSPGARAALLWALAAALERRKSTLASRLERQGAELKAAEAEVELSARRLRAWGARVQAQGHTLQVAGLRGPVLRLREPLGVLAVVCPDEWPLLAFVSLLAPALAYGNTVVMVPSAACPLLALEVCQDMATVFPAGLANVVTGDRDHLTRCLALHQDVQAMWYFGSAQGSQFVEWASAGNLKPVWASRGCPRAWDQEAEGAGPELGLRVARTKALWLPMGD
UniProt O00468: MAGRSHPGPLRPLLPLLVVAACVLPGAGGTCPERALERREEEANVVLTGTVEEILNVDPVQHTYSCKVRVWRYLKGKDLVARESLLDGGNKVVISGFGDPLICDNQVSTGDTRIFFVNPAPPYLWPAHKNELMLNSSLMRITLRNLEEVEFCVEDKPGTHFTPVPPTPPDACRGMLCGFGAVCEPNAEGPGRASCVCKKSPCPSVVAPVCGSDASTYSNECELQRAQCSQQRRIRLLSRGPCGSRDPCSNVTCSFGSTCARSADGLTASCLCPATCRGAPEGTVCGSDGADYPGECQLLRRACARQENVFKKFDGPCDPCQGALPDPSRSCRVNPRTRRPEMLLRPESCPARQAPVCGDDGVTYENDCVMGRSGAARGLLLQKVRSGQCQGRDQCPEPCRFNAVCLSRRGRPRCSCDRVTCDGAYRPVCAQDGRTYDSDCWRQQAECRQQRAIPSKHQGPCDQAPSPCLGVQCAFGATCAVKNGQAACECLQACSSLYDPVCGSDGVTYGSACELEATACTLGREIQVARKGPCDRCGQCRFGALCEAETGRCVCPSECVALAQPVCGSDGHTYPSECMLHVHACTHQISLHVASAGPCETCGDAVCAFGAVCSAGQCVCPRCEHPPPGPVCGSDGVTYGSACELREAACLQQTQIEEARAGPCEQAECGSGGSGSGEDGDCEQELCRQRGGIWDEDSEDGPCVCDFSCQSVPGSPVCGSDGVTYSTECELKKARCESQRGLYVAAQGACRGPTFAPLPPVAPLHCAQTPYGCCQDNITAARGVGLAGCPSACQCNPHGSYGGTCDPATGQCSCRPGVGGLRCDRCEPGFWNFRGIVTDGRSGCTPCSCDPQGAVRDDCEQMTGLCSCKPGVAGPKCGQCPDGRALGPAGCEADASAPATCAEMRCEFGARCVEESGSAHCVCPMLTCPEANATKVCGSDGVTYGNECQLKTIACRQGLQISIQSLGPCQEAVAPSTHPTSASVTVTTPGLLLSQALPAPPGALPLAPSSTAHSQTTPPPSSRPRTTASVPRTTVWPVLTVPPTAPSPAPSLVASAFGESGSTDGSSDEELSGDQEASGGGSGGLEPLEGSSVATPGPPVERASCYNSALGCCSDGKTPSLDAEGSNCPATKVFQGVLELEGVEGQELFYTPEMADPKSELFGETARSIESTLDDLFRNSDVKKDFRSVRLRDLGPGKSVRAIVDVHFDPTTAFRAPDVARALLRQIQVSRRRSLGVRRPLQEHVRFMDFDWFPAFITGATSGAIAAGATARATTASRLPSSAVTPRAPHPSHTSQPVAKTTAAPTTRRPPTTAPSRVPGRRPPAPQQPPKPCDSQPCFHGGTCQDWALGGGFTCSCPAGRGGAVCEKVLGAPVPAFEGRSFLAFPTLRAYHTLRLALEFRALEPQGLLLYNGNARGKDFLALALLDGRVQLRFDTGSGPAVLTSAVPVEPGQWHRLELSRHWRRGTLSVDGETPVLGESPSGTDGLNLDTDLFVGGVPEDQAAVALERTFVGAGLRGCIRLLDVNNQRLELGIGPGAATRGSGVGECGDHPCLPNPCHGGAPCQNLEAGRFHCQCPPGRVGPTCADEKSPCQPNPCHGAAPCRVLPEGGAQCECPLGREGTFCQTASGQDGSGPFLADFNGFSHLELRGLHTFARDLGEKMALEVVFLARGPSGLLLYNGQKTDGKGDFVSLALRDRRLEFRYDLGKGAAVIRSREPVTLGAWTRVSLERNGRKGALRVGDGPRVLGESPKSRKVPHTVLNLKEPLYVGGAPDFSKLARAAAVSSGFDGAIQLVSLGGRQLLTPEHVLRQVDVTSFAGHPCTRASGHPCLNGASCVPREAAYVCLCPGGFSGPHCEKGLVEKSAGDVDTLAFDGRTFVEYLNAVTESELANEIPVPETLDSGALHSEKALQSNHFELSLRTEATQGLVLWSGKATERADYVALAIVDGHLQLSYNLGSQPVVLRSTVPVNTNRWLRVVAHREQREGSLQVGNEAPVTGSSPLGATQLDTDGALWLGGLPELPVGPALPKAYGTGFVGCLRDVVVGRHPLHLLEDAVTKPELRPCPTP
UniProt Q9UEY8: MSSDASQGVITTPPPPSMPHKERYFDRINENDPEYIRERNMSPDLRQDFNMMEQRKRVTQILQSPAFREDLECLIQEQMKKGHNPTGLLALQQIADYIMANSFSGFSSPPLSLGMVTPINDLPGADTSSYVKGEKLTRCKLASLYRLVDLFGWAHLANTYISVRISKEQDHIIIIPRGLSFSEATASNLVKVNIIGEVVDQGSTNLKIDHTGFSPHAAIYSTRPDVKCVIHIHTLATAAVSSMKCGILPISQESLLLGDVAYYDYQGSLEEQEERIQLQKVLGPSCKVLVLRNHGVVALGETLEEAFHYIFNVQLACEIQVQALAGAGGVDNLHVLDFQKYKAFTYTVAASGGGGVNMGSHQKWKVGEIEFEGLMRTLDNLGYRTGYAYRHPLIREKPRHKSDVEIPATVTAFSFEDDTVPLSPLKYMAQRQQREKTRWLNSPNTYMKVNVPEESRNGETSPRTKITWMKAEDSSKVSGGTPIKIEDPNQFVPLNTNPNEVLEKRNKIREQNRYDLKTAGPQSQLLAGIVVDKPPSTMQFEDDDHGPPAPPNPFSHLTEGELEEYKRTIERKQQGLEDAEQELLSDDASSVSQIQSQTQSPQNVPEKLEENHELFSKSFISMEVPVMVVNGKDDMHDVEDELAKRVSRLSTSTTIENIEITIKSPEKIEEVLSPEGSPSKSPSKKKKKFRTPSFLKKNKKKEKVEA
UniProt Q9ULX6: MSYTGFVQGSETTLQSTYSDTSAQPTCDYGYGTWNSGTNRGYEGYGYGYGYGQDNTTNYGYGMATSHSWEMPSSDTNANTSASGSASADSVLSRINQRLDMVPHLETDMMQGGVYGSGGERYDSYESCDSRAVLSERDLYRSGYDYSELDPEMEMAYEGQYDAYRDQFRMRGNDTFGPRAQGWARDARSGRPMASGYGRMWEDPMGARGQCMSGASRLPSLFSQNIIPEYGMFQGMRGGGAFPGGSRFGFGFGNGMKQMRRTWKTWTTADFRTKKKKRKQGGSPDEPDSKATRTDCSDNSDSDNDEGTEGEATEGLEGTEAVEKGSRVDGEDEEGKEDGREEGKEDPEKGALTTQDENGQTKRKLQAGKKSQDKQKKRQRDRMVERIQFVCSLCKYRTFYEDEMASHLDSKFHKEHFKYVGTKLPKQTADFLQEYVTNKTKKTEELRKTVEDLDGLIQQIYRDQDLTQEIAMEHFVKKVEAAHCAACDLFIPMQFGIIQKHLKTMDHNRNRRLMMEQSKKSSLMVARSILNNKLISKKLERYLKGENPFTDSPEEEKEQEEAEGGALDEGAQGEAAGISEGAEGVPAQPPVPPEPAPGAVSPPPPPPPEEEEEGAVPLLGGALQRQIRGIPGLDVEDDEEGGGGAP
UniProt Q9BVK2: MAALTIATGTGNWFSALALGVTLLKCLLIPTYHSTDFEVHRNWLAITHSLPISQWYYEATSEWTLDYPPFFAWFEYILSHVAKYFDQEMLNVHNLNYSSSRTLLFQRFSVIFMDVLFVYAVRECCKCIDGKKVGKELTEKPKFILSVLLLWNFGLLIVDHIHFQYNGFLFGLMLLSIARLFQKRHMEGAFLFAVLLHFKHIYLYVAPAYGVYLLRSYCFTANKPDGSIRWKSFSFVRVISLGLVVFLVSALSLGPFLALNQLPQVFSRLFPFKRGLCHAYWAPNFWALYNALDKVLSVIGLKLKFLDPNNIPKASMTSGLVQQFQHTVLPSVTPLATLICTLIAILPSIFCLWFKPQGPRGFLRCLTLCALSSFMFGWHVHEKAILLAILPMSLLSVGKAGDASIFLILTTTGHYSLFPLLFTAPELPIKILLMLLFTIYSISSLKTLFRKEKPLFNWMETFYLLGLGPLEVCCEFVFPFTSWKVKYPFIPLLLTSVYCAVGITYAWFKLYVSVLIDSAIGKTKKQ
UniProt Q99943: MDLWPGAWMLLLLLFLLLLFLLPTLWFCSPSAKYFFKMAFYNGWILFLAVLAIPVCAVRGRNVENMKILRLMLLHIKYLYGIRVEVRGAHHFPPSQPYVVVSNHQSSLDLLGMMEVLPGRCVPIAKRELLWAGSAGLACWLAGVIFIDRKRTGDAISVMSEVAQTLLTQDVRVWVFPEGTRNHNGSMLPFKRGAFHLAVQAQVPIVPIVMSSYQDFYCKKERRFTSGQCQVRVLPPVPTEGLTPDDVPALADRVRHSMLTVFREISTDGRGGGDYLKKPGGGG
UniProt Q01432: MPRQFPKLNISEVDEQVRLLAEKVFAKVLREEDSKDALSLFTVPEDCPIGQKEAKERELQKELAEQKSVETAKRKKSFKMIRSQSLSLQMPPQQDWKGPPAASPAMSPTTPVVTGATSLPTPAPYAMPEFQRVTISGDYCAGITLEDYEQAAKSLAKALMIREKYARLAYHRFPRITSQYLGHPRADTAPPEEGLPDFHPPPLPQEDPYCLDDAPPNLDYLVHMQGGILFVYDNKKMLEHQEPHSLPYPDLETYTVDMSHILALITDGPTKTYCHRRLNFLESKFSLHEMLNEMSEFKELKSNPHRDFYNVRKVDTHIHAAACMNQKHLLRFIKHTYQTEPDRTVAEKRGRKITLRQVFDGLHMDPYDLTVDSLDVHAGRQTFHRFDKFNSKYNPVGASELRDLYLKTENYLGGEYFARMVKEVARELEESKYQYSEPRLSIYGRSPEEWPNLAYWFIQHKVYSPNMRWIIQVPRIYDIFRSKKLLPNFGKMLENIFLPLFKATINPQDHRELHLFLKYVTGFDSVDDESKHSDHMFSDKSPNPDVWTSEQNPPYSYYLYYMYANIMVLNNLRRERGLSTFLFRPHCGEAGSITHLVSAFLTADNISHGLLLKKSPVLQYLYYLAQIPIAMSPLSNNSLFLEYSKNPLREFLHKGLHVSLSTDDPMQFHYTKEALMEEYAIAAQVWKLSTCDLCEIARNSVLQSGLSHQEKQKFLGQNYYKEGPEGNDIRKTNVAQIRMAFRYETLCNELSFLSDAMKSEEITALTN
UniProt Q02252: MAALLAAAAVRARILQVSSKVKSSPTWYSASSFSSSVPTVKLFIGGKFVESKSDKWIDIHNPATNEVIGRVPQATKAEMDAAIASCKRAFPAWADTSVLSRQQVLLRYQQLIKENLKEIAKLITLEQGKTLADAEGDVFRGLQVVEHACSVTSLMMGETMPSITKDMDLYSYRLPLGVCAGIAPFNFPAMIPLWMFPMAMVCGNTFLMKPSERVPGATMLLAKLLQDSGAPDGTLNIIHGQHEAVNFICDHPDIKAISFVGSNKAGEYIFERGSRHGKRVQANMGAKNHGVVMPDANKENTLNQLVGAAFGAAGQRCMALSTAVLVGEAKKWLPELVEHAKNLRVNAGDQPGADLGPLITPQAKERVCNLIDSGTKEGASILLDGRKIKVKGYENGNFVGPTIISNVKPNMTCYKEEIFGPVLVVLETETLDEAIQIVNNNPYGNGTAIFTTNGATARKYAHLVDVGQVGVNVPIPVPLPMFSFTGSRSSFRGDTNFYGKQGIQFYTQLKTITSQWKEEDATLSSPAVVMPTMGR

Tests used:
Assay in all cases: log2 fold change, soluble protein after heating vs DMSO (PISA); higher = thermal stabilisation; K562 cells, 10 uM, 30 min; active = over 0.2 and 3.5 SD of the protein, either way, in both replicates (recomputed)
[1] = compound: Cc1ccc(NC(=O)c2ccc(CN3CC[C@H](N(C)C)C3)c(C(F)(F)F)c2)cc1Nc1nccc(-c2cncnc2)n1 [bafetinib]
How it was run: (§1)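 For each measurement, 10 μM compound was applied for 30 min to K562 cells at 2×10^6 cells/mL. Aliquots were heated for 3 min across 48°C-58°C, pooled, and extracted in PBS with 0.5% NP-40 at 4°C; the supernatant after 21,000xg for 90 min was soluble protein. This was quantified by TMTpro 16plex LC-MS/MS with channel sums equalised, and thermal stability was reported relative to control samples from duplicates, on a log2 fold-change scale.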

[2] = compound: Cc1cccc(CC(=O)N2CCc3c2ccc(-c2cn(C)c4ncnc(N)c24)c3F)n1
How it was run: as §1

[3] = compound: Cc1cn(-c2cc(NC(=O)c3ccc(C)c(Nc4nccc(-c5cccnc5)n4)c3)cc(C(F)(F)F)c2)cn1 [nilotinib]
How it was run: as §1

[4] = compound: Cc1nc(Nc2n[nH]c3c2CN(C(=O)N[C@H](CN(C)C)c2ccccc2)C3(C)C)c2sccc2n1
How it was run: as §1

[5] = compound: Cc1nc(Nc2ncc(C(=O)Nc3c(C)cccc3Cl)s2)cc(N2CCN(CCO)CC2)n1 [dasatinib]
How it was run: as §1

[6] = compound: Cc1ncc(-c2ccnc(Nc3ccc(S(C)(=O)=O)cc3)n2)n1C(C)C
How it was run: as §1

[7] = compound: Cn1cc(-c2ccc3c(c2)CCN3C(=O)Cc2cccc(C(F)(F)F)c2)c2c(N)ncnc21
How it was run: as §1

[8] = compound: Cn1cc(-c2ccc3nnc(C(F)(F)c4ccc5ncccc5c4)n3n2)cn1
How it was run: as §1

[9] = compound: Cn1cncc1[C@@](N)(c1ccc(Cl)cc1)c1ccc2c(c1)c(-c1cccc(Cl)c1)cc(=O)n2C [tipifarnib]
How it was run: as §1

[10] = compound: FC(F)(F)c1ccc(/C=C/c2nc(COc3ccc(CCCCn4ccnn4)cc3)co2)cc1 [mubritinib]
How it was run: as §1

[11] = compound: NC(=O)c1cnc(N[C@@H]2CCCC[C@@H]2N)nc1Nc1cccc(-n2nccn2)c1
How it was run: as §1

[12] = compound: NC1(c2ccc(-c3nc4ccn5c(=O)[nH]nc5c4cc3-c3ccccc3)cc2)CCC1
How it was run: as §1

[13] = compound: NCC(=O)Nc1ccc(-n2nc(C(F)(F)F)cc2-c2ccc3c(ccc4ccccc43)c2)cc1
How it was run: as §1

[14] = compound: O=C(CCCCCCC(=O)Nc1ccccc1)NO [vorinostat]
How it was run: as §1

[15] = compound: O=C(CCCCCCNC(=O)c1cnc(N(c2ccccc2)c2ccccc2Cl)nc1)NO [citarinostat]
How it was run: as §1

[16] = compound: O=C(O)c1ccc2c(c1)nc(Nc1cccc(Cl)c1)c1ccncc12 [silmitasertib]
How it was run: as §1

[17] = compound: O=C1NC(=O)C(c2cnc3ccccn23)=C1c1cn2c3c(cc(F)cc13)CN(C(=O)N1CCCCC1)CC2
How it was run: as §1

[18] = compound: c1cc(OCCN2CCCCC2)cc(-c2n[nH]c3ccc(-c4nnc[nH]4)cc23)c1
How it was run: as §1

[19] = compound: NC(=O)Nc1cc(-c2cccc(F)c2)sc1C(=O)N[C@H]1CCCNC1
How it was run: as §1

[20] = compound: Nc1ccccc1NC(=O)c1ccc(CNC(=O)OCc2cccnc2)cc1 [entinostat]
How it was run: as §1

Row | Target | log2 fold change [1] | log2 fold change [2] | log2 fold change [3] | log2 fold change [4] | log2 fold change [5] | log2 fold change [6] | log2 fold change [7] | log2 fold change [8] | log2 fold change [9] | log2 fold change [10] | log2 fold change [11] | log2 fold change [12] | log2 fold change [13] | log2 fold change [14] | log2 fold change [15] | log2 fold change [16] | log2 fold change [17] | log2 fold change [18] | log2 fold change [19] | log2 fold change [20]
1 | AIF1L isoform 2 (UniProt Q9BQI0) | inactive: 0.026 | inactive: -0.004 | inactive: -0.009 | inactive: -0.13 | inactive: -0.014 | inactive: 0.132 | inactive: 0.031 | inactive: -0.059 | inactive: -0.028 | inactive: 0.138 | inactive: 0.186 | inactive: 0.159 | inactive: 0.043 | inactive: -0.008 | inactive: 0.064 | inactive: 0.011 | inactive: 0.389 | inactive: -0.21 |  | 
2 | AGPAT4 (UniProt Q9NRZ5) | inactive: -0.131 | inactive: 0.013 | inactive: -0.08 | inactive: -0.101 | inactive: 0.041 | inactive: 0.05 | inactive: 0.056 | inactive: 0.096 | inactive: -0.006 | inactive: 0.182 |  | inactive: -0.259 |  | inactive: -0.102 | inactive: -0.051 | inactive: 0.066 |  | inactive: 0.046 | inactive: -0.145 | inactive: 0.136
3 | ALDH16A1 (UniProt Q8IZ83) | inactive: -0.018 | inactive: -0.043 | inactive: -0.038 | inactive: 0.001 | inactive: -0.031 | inactive: -0.008 | inactive: 0.057 | inactive: 0.014 | inactive: -0.013 | inactive: 0.021 | inactive: -0.032 | inactive: -0.045 | inactive: -0.042 | inactive: 0.01 | inactive: 0.032 | inactive: -0.026 | inactive: -0.067 | inactive: 0.019 | inactive: 0.006 | inactive: -0.014
4 | AGRN (UniProt O00468) | inactive: 0.006 | inactive: 0.001 | inactive: -0.034 | inactive: -0.035 | inactive: 0.355 | inactive: -0.086 | inactive: 0.03 | inactive: 0.162 | inactive: 0.165 | inactive: -0.079 | inactive: 0.053 | inactive: 0.033 | inactive: 0.02 | inactive: -0.126 | inactive: 0.01 | inactive: -0.073 | inactive: 0.087 | inactive: -0.238 | inactive: 0.016 | inactive: 0.035
5 | AFG3L2 (UniProt Q9Y4W6) | inactive: -0.072 | inactive: 0 | inactive: -0.04 | inactive: -0.027 | inactive: -0.072 | inactive: -0.017 | inactive: -0.008 | inactive: 0.036 | inactive: -0.004 | inactive: -0.119 | inactive: -0.002 | inactive: -0.126 | inactive: -0.031 | inactive: 0.065 | inactive: 0.032 | inactive: -0.001 | inactive: 0.001 | inactive: -0.017 | inactive: -0.008 | inactive: 0.02
6 | ADD3 (UniProt Q9UEY8) | inactive: 0.008 | inactive: -0.008 | inactive: 0.031 | inactive: -0.004 | inactive: 0.072 | inactive: -0.096 | inactive: 0.028 | inactive: -0.016 | inactive: 0.009 | inactive: 0.038 | inactive: -0.014 | inactive: 0.047 | inactive: -0.001 | inactive: -0.01 | inactive: -0.015 | inactive: 0.001 | inactive: -0.037 | inactive: -0.024 | inactive: 0.03 | inactive: -0.051
7 | ADD1 isoform 3 (UniProt P35611) | inactive: -0.018 | inactive: 0.068 | inactive: 0.014 | inactive: -0.02 | inactive: 0.041 | inactive: -0.093 | inactive: 0.009 | inactive: 0.014 | inactive: 0.015 | inactive: 0.033 | inactive: -0.016 | inactive: 0.034 | inactive: -0.02 | inactive: 0.01 | inactive: 0.034 | inactive: -0.01 | inactive: -0.06 | inactive: 0.01 | inactive: 0.03 | inactive: -0.071
8 | AK2 isoform 2 (UniProt P54819) | inactive: -0.041 | inactive: -0.013 | inactive: 0.029 | inactive: -0.01 | inactive: 0.063 | inactive: -0.016 | inactive: 0.012 | inactive: 0.021 | inactive: 0.028 | inactive: 0.024 | inactive: 0.004 | inactive: 0.072 | inactive: 0.014 | inactive: -0.016 | inactive: 0.019 | inactive: -0.04 | inactive: -0.022 | inactive: 0.01 | inactive: 0.009 | inactive: -0.025
9 | AKAP8L (UniProt Q9ULX6) | inactive: -0.078 | inactive: -0.039 | inactive: 0.044 | inactive: -0.02 | inactive: -0.161 | inactive: -0.052 | inactive: -0.036 | inactive: -0.14 | inactive: 0.039 | inactive: 0.003 | inactive: 0.153 | inactive: -0.063 | inactive: -0.098 | inactive: 0.088 | inactive: 0.124 | inactive: -0.012 | inactive: -0.236 | inactive: -0.067 | inactive: -0.006 | inactive: 0.01
10 | ALG8 (UniProt Q9BVK2) | inactive: -0.008 | inactive: 0.014 | inactive: -0.062 | inactive: 0.047 | inactive: -0.038 | inactive: -0.012 | inactive: 0.059 | inactive: 0.016 | inactive: -0.094 | inactive: -0.002 | inactive: -0.102 | inactive: -0.153 | inactive: -0.084 | inactive: 0.16 | inactive: 0.013 | inactive: 0.028 | inactive: -0.034 | inactive: -0.109 | inactive: -0.144 | inactive: 0.078
11 | AGPAT1 (UniProt Q99943) | inactive: -0.036 | inactive: 0.012 | inactive: -0.035 | inactive: 0.016 | inactive: -0.033 | inactive: -0.063 | inactive: 0.033 | inactive: -0.006 | inactive: 0.027 | inactive: 0.014 | inactive: -0.022 | inactive: 0.018 | inactive: -0.012 | inactive: -0.03 | inactive: 0.088 | inactive: -0.007 | inactive: -0.067 | inactive: -0.002 | inactive: 0.013 | inactive: -0.033
12 | AMPD3 isoform 4 (UniProt Q01432) | inactive: -0.003 | inactive: -0.022 | inactive: 0.036 | inactive: -0.005 | inactive: -0.088 | inactive: -0.067 | inactive: 0.065 | inactive: 0.04 | inactive: -0.017 | inactive: -0.02 | inactive: -0.039 | inactive: -0.125 | inactive: -0.001 | inactive: 0.035 | inactive: 0 | inactive: 0.011 | inactive: -0.044 | inactive: -0.026 | inactive: 0.001 | inactive: -0.006
13 | ALDH6A1 (UniProt Q02252) | inactive: -0.045 | inactive: -0.103 | inactive: -0.003 | inactive: 0.018 | inactive: -0.204 | inactive: -0.015 | inactive: -0.019 | inactive: -0.019 | inactive: 0.01 | active: -0.528 | inactive: 0.034 | inactive: -0.045 | inactive: -0.116 | inactive: 0.021 | inactive: 0.062 | inactive: 0.048 | inactive: -0.072 | inactive: -0.043 | inactive: -0.02 | inactive: -0.052
14 | ALG13 (UniProt Q9NP73) | inactive: -0.004 | inactive: 0.009 | inactive: 0.029 | inactive: 0 | inactive: -0.018 | inactive: -0.046 | inactive: -0.004 | inactive: 0 | inactive: 0.01 | inactive: 0.07 | inactive: -0.029 | inactive: -0.114 | inactive: -0.103 | inactive: 0.001 | inactive: 0.07 | inactive: -0.012 | inactive: -0.085 | inactive: -0.097 | inactive: 0.081 | inactive: 0.092
15 | AFTPH isoform 9 (UniProt Q6ULP2) | inactive: -0.064 | inactive: -0.012 | inactive: -0.081 | inactive: 0.015 | inactive: -0.005 | inactive: -0.049 | inactive: 0.031 | inactive: 0.084 | inactive: -0.079 | inactive: 0.102 | inactive: -0.109 | inactive: -0.072 | inactive: -0.066 | inactive: 0.026 | inactive: 0.05 | inactive: 0 | inactive: 0.125 | inactive: 0.066 | inactive: -0.04 | inactive: 0.037
